Reference: paper PMC8520055 (Asian Journal of Pharmaceutical Sciences, 2021)

How the values were obtained:
Pharmacokinetics of ATV [1] = type: in vivo, rats; settings: ATV 10 mg/kg p.o.; for CL/F / Cmax / MRT last / MRT inf: rat, plasma, po, 10 mg/kg; for MRT last: MRT0-t; for MRT inf: MRT0-∞
Pharmacokinetics of ATV [2] = type: in vivo, rats; settings: ATV 10 mg/kg p.o.; for AUC(0-inf) / CL/F / Cmax / MRT last / MRT inf: rat, plasma, po, 10 mg/kg; for AUC(0-inf): AUC0-∞; for MRT last: MRT0-t; for MRT inf: MRT0-∞
[3] = Hepatic disposition of ATV and GCDCA-S in rats with ANIT-induced liver injury; type: in vivo; settings: 10 mg/kg ANIT-treated rats; ATV 10 mg/kg p.o., 30 min; P > 0.05

V/F (Pharmacokinetics of ATV [1]; Control (vehicle i.v.)): 46.22 ± 8.62 L/kg | V/F (Pharmacokinetics of ATV [1]; with RIF 30 mg/kg i.v.): 11.64 ± 4.81 ^⁎⁎ l/kg | CL/F (Pharmacokinetics of ATV [1]; Control (vehicle i.v.)): 360 ± 70 mL/min/kg | CL/F (Pharmacokinetics of ATV [1]; with RIF 30 mg/kg i.v.): 70 ± 10 mL/min/kg | Cmax (Pharmacokinetics of ATV [1]; Control (vehicle i.v.)): 315 ± 54.4 ng/mL | Cmax (Pharmacokinetics of ATV [1]; with RIF 30 mg/kg i.v.): 1530 ± 372 ng/mL | MRT last (Pharmacokinetics of ATV [1]; Control (vehicle i.v.)): 1.46 h | MRT last (Pharmacokinetics of ATV [1]; with RIF 30 mg/kg i.v.): 1.53 h | MRT inf (Pharmacokinetics of ATV [1]; Control (vehicle i.v.)): 1.81 h | MRT inf (Pharmacokinetics of ATV [1]; with RIF 30 mg/kg i.v.): 2.14 h | V/F (Pharmacokinetics of ATV [2]; Control (vehicle i.v.)): 19.03 ± 4.76 L/kg | V/F (Pharmacokinetics of ATV [2]; with KTZ 20 mg/kg i.v.): 14.11 ± 6.56 L/kg | AUC(0-inf) (Pharmacokinetics of ATV [2]; Control (vehicle i.v.)): 668 ng·h/mL | AUC(0-inf) (Pharmacokinetics of ATV [2]; with KTZ 20 mg/kg i.v.): 1700 ng·h/mL | CL/F (Pharmacokinetics of ATV [2]; Control (vehicle i.v.)): 280 ± 90 mL/min/kg | CL/F (Pharmacokinetics of ATV [2]; with KTZ 20 mg/kg i.v.): 110 ± 30 mL/min/kg | Cmax (Pharmacokinetics of ATV [2]; Control (vehicle i.v.)): 463 ± 120 ng/mL | Cmax (Pharmacokinetics of ATV [2]; with KTZ 20 mg/kg i.v.): 706 ± 159 ng/mL | MRT last (Pharmacokinetics of ATV [2]; Control (vehicle i.v.)): 1.09 h | MRT last (Pharmacokinetics of ATV [2]; with KTZ 20 mg/kg i.v.): 1.82 h | MRT inf (Pharmacokinetics of ATV [2]; Control (vehicle i.v.)): 1.13 h | MRT inf (Pharmacokinetics of ATV [2]; with KTZ 20 mg/kg i.v.): 2.3 h
SMILES: CC(C)c1c(C(=O)Nc2ccccc2)c(-c2ccccc2)c(-c2ccc(F)cc2)n1CC[C@@H](O)C[C@@H](O)CC(=O)O [atorvastatin]
Plasma levels vs control [3]: no significant change
